# Assay results from article PMC5201024.
# The chains behind the UniProt entries cited, without tags or fusion partners. Where a name states a change or a piece, a line headed by the entry shows the natural chain unless it says otherwise.
# UniProt P63151: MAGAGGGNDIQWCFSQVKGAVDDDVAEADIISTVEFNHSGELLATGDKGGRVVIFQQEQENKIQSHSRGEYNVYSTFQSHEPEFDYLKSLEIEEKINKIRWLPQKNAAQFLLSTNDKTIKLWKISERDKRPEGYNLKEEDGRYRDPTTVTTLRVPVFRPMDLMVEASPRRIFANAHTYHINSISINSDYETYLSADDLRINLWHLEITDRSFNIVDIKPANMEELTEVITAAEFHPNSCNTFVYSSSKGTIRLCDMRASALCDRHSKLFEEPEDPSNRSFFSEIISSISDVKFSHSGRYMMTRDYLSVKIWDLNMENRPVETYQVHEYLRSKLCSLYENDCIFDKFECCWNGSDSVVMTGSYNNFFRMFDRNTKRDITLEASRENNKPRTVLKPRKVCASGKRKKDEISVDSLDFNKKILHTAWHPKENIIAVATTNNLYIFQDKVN
# UniProt P61586: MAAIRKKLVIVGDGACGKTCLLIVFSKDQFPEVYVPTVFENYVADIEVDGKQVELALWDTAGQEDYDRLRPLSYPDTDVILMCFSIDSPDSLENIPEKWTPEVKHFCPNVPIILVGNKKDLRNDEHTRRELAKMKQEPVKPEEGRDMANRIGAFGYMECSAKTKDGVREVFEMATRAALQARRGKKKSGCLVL
# UniProt P62745: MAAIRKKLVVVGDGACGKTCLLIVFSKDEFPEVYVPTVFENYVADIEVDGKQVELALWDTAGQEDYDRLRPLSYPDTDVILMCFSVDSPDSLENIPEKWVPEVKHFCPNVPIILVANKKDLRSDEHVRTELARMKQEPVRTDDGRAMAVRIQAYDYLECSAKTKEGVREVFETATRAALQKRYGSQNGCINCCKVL
# UniProt P08134: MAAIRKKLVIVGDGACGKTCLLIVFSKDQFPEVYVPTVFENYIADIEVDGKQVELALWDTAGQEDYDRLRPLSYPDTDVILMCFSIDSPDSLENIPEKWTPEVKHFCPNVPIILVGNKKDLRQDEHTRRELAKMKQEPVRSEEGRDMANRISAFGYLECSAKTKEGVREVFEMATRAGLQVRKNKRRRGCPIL
# UniProt P62258: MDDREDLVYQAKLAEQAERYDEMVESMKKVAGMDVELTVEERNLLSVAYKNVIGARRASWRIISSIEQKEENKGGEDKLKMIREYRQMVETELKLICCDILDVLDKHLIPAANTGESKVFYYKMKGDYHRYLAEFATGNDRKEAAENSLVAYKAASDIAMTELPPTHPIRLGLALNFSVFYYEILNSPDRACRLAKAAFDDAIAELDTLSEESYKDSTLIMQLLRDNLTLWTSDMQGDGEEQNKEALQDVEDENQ
# UniProt P67775: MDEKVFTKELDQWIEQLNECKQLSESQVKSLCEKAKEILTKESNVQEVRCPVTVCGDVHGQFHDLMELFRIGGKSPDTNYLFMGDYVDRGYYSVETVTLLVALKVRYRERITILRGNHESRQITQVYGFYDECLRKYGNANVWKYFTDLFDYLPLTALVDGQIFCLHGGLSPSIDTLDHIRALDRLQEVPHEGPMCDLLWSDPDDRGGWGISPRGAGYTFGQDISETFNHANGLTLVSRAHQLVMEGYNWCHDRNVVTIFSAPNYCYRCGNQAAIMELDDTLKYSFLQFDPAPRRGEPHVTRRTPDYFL
# UniProt Q9BUL8: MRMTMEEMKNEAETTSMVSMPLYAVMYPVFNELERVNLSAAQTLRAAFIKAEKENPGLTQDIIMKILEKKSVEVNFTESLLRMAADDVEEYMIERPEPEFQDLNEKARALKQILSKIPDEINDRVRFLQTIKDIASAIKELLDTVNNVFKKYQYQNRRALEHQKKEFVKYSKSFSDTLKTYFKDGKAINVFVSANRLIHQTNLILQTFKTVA
# Results are given in words; binding and its absence hold for the method and conditions named. Binding seen in cells or lysates may run through a third protein. A yes stands for co-enrichment or nearness to the bait. Other partners may have been found. For part of these data: Sequences can lack the tags named with a protein.
# T1: GFP-tagged full-length FAM65A (human) (UniProt Q6ZS17)
# T1 sequence: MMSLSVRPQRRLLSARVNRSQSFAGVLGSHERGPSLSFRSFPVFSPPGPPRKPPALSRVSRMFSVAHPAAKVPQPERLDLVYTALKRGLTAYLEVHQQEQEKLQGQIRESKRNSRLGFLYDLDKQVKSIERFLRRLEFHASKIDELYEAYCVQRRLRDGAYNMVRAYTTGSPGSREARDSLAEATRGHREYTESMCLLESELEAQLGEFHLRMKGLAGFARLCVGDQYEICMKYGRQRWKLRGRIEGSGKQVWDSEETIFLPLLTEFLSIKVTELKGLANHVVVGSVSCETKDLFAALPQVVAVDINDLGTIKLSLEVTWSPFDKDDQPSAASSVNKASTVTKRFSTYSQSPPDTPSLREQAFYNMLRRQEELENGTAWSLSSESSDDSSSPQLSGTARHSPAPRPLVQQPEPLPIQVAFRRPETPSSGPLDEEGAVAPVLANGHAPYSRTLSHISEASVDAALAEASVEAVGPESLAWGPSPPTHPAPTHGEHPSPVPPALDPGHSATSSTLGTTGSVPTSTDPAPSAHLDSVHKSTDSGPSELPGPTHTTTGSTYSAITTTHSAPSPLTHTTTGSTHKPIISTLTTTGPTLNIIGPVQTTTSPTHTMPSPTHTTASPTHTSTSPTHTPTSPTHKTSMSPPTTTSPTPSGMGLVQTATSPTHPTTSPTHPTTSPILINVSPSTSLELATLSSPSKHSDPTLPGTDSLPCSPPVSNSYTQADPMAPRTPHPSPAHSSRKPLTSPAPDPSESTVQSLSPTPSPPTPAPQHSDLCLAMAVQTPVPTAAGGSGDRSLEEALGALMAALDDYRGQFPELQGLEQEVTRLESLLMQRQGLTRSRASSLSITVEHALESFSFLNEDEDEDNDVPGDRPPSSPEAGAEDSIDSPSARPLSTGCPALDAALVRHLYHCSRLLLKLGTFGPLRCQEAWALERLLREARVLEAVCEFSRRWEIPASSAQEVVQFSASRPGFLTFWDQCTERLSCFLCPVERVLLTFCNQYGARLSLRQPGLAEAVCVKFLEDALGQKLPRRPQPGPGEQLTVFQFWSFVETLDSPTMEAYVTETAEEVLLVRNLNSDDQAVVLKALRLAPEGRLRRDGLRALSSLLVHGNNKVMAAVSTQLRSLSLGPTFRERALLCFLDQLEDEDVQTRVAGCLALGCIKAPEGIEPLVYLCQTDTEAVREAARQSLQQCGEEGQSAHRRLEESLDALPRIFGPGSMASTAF
# B1: FAM65A (endogenous) (protein, UniProt Q6ZS17 1-1223)
# chain: T1 sequence
# Molecular target: T1, GFP-tagged full-length FAM65A (human)
# Test: affinity purification with mass spectrometry; anti-GFP immunoprecipitation from SILAC-labelled HeLa cells overexpressing GFP–FAM65A versus GFP-only, FASP digestion, LC-MS/MS
row,binding,Molecule
1,binds,PP2A regulatory subunit PPP2R2A (endogenous) (from UniProt P63151 1-447)
2,binds,RHOA (endogenous) (from UniProt P61586 1-193)
3,binds,RHOB (endogenous) (from UniProt P62745 1-196)
4,binds,RHOC (endogenous) (from UniProt P08134 1-193)
5,binds,YWHAE (endogenous) (from UniProt P62258 1-255)
6,binds,catalytic PP2A subunit (endogenous) (from UniProt P67775) (enzyme)
7,binds,"cerebral cavernous malformation-3 protein (CCM3), endogenous (from UniProt Q9BUL8 1-212)"
8,binds,scaffolding PP2A subunit (endogenous) (human (endogenous in HeLa))

# Molecular target: GTP-bound GST–RHOA (UniProt P61586)
# Test: affinity purification with mass spectrometry; purified GTP-bound GST–RHOA (or GST only) immobilised on glutathione–Sepharose beads, SILAC-labelled HeLa lysates, 1 h at 4°C, 50 mM Tris-HCl pH 7.5, 150 mM NaCl, 1% NP-40, 10 mM MgCl2; only the target purified
row,binding,Molecule
1,binds,B1
